In the assay the test system is HEK293A TEAD-LUC reporter. In words: TEAD-luciferase reporter activity (YAP activation), robust Z score vs plate; higher = stronger YAP/TEAD activation. Conditions: 24 h. For orientation: A reporter such as luciferase makes a cellular process visible.

The structures appear in SMILES notation. Counter-ions that a name gives are not always drawn. The list shows a part of the results. Repeats in this data set agree poorly, so a single value says little.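 In a drug-repurposing library screen, luminescence reads luciferase driven by eight TEAD-binding elements, stably integrated into human kidney-derived cells. Compounds scoring over five robust Z scores above the plate mean are called hits.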

For the compound `COc1ccc2cc3[n+](cc2c1OC)CCc1cc2c(cc1-3)OCO2` [Berberine chloride], the TEAD-luciferase reporter activity was inactive: -1.59 (compound concentration: 200 nM), inactive: -1.85 (compound concentration: 2 uM) and inactive: 1.67 (compound concentration: 10 uM).
Turning to `CCOC(=O)C1=C(C)NC(C)=C(C(=O)OCC)C1c1cccnc1SC`, the TEAD-luciferase reporter activity by setting is: (compound concentration: 200 nM) inactive: -1.03; (compound concentration: 2 uM) inactive: -1.45; (compound concentration: 10 uM) inactive: -0.502.
Turning to `COc1ccc(C(=O)Nc2cccc(O)c2NC(=O)c2ccc(N3CCCN(C)CC3)cc2)cc1` [Darexaban maleate], the TEAD-luciferase reporter activity (compound concentration: 200 nM) was inactive: -1.83, the TEAD-luciferase reporter activity (compound concentration: 2 uM) was inactive: -0.83 and the TEAD-luciferase reporter activity (compound concentration: 10 uM) was inactive: 0.539.
For `CO/N=C1/CC(CO)N(C(=O)c2ccc(-c3ccccc3C)cc2)C1` (configuration not stated), the TEAD-luciferase reporter activity runs as follows: (compound concentration: 200 nM) inactive: 1.42; (compound concentration: 2 uM) inactive: -0.67; (compound concentration: 10 uM) inactive: 3.05.
As for `Cc1cccc(CN2CCN(C)C[C@@H](NC(=O)c3n[nH]c4ccccc34)C2)c1`, the TEAD-luciferase reporter activity was inactive: -1.59 (compound concentration: 200 nM), inactive: -0.647 (compound concentration: 2 uM) and inactive: 1.93 (compound concentration: 10 uM).
In the case of `CSCC[C@H](NC(=O)c1cc(NC[C@@H]2C[C@H](SC(=O)c3cccnc3)CN2)ccc1CCc1ccc(F)cc1)C(=O)OC(C)C`, the TEAD-luciferase reporter activity by setting is: (compound concentration: 200 nM) inactive: -1.56; (compound concentration: 2 uM) inactive: 1.5; (compound concentration: 10 uM) inactive: -0.0535.
As for `Oc1ccc(Nc2ccnc3cc(Cl)ccc23)cc1CN1CCCC1`, the TEAD-luciferase reporter activity was inactive: -0.63 (compound concentration: 200 nM), inactive: -1.01 (compound concentration: 2 uM) and inactive: 2.51 (compound concentration: 10 uM).
For `Cc1c(C)c2c(c(C)c1O)C[C@@H](CC(=O)O)O2`, the TEAD-luciferase reporter activity by setting is: (compound concentration: 200 nM) inactive: 0.0343; (compound concentration: 2 uM) inactive: -1.03; (compound concentration: 10 uM) inactive: 0.77.
In the case of `O=C(O)CCC(=O)c1ccc2oc3ccccc3c2c1` [furobufen], the TEAD-luciferase reporter activity was inactive: -0.116 (compound concentration: 200 nM), inactive: 0.763 (compound concentration: 2 uM) and inactive: 3.1 (compound concentration: 10 uM).
For the compound `CSc1ccccc1OCC(O)CNC(C)C` (configuration not stated) [tiprenolol], the TEAD-luciferase reporter activity (compound concentration: 200 nM) is inactive: -1.24, the TEAD-luciferase reporter activity (compound concentration: 2 uM) is inactive: -1.59 and the TEAD-luciferase reporter activity (compound concentration: 10 uM) is inactive: 0.741.
Consider `Cn1cnc2c(NC3CCCC3)ncnc21`, for which the TEAD-luciferase reporter activity (compound concentration: 200 nM) is inactive: -1.58 and the TEAD-luciferase reporter activity (compound concentration: 10 uM) was inactive: 0.0465.
`O=C(O)c1ccc(OCCn2ccnc2)cc1` [Dazoxiben hydrochloride]: the TEAD-luciferase reporter activity (compound concentration: 200 nM) is inactive: 0.3, the TEAD-luciferase reporter activity (compound concentration: 2 uM) was inactive: -0.783 and the TEAD-luciferase reporter activity (compound concentration: 10 uM) was inactive: -1.1.
With `CCN1CCN(c2cc(-c3ccc(F)cc3)c3c(n2)CCCCCC3)CC1` [blonanserin], the TEAD-luciferase reporter activity runs as follows: (compound concentration: 200 nM) inactive: -0.362; (compound concentration: 2 uM) inactive: -1.13; (compound concentration: 10 uM) inactive: -0.173.
Regarding `CCOC(=O)C(c1ccccc1)N1CCCCC1` (configuration not stated), the TEAD-luciferase reporter activity was inactive: 0.864 (compound concentration: 200 nM), inactive: 1.51 (compound concentration: 2 uM) and inactive: 2.89 (compound concentration: 10 uM).
Regarding `O=C(O)CN1C(=O)[C@@H](NC(=O)C2(CC(CCc3ccccc3)C(=O)O)CCCC2)CCc2ccccc21` (some centres not stated), the TEAD-luciferase reporter activity by setting is: (compound concentration: 200 nM) inactive: -1.26; (compound concentration: 2 uM) inactive: -1.26; (compound concentration: 10 uM) inactive: 4.82.
Take `CNC(=O)c1cccc2cc(Oc3ccnc4cc(OCC5(N)CC5)c(OC)cc34)ccc12` [lucitanib]: the TEAD-luciferase reporter activity reads like this: (compound concentration: 200 nM) inactive: -1.86; (compound concentration: 2 uM) inactive: -0.996; (compound concentration: 10 uM) inactive: 0.204.

Source of the values: the supplement of paper PMC10735217.
